Measurements published in the supplement of paper PMC10849652.
The other results are listed elsewhere or left out.

Sequences of proteins named here, by UniProt entry; tags and fusion partners are left off. A change or cut given only in a name is not applied to a line headed by its entry.
UniProt Q5M775: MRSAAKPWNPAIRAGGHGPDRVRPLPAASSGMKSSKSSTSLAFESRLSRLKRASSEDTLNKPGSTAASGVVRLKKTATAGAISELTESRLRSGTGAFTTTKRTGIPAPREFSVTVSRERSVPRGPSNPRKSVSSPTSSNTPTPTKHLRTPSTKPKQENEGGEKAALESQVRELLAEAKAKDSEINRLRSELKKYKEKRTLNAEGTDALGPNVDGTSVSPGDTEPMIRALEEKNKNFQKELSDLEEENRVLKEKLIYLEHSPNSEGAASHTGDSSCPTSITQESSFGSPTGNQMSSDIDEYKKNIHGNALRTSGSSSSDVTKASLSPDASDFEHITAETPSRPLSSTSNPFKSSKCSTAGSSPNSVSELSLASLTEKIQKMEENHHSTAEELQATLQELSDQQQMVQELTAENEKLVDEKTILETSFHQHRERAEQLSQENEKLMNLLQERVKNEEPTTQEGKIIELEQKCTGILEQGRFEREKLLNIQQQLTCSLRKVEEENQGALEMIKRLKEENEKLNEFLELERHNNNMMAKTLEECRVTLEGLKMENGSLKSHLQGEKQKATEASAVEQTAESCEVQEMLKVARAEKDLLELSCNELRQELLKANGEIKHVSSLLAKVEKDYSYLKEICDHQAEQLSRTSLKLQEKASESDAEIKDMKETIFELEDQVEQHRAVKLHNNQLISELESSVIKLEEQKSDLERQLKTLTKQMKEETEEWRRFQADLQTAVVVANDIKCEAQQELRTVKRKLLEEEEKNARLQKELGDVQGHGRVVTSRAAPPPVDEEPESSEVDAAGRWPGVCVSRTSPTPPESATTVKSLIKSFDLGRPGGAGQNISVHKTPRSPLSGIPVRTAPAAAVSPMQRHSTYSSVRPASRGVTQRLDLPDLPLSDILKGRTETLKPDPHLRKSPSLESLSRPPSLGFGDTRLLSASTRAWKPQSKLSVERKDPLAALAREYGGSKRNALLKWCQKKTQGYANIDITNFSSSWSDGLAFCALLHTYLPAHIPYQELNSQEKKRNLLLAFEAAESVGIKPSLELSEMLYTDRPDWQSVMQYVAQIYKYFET
UniProt P61009: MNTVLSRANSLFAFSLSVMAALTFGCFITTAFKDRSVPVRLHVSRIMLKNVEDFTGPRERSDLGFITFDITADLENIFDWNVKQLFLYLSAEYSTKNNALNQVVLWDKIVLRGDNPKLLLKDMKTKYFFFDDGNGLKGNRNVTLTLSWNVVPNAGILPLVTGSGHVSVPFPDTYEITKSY
UniProt P05455: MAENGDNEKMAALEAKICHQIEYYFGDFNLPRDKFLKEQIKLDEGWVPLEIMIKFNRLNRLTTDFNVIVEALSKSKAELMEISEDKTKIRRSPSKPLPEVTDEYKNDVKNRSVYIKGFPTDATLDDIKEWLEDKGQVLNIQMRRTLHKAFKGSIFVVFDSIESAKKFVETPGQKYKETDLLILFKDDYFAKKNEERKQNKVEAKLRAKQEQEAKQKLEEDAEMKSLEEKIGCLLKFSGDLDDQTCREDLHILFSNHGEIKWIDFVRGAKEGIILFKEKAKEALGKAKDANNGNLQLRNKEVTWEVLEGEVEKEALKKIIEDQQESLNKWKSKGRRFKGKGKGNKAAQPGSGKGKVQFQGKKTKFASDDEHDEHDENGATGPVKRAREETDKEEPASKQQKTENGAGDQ
UniProt Q9NZD8: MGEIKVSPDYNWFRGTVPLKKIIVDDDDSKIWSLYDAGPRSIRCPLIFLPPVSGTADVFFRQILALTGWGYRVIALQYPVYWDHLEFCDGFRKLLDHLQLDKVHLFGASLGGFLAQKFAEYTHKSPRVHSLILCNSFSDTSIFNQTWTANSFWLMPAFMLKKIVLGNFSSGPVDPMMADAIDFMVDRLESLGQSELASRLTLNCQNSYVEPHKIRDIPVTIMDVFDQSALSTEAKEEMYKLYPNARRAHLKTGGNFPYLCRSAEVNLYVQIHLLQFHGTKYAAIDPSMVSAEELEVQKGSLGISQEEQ
UniProt O15269: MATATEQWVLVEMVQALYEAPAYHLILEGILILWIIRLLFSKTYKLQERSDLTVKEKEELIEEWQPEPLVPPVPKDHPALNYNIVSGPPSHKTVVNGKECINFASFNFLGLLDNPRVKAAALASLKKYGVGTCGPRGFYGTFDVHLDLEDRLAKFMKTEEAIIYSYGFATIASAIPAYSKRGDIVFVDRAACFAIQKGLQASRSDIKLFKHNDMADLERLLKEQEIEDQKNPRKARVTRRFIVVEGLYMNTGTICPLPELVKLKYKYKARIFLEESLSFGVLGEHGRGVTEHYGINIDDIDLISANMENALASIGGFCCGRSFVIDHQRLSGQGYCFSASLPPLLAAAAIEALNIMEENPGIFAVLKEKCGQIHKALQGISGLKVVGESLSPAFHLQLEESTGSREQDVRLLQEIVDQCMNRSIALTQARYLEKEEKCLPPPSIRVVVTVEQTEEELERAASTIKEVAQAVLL
UniProt Q13242, whole entry, looked up: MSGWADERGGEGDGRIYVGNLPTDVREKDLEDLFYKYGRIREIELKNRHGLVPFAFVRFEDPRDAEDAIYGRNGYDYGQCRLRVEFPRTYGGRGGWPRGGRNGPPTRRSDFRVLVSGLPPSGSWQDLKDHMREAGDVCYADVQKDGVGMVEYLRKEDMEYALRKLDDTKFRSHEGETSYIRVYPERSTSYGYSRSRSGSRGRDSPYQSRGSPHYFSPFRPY
UniProt Q9NSC7: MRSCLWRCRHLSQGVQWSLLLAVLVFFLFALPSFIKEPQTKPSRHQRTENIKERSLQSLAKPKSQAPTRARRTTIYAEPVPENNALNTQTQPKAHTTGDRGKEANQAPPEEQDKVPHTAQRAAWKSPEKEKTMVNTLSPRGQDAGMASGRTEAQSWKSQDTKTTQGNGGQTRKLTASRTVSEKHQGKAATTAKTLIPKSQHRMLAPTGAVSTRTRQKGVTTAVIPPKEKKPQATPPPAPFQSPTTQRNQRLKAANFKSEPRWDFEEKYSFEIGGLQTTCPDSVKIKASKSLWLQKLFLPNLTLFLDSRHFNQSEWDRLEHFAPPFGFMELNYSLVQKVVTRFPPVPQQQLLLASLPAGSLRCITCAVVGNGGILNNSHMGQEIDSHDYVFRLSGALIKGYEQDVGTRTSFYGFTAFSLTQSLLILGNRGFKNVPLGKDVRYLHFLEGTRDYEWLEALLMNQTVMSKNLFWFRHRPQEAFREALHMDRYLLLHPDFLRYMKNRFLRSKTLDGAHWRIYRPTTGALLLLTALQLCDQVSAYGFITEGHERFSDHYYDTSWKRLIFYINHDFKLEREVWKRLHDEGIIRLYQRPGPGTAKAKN
UniProt Q14534: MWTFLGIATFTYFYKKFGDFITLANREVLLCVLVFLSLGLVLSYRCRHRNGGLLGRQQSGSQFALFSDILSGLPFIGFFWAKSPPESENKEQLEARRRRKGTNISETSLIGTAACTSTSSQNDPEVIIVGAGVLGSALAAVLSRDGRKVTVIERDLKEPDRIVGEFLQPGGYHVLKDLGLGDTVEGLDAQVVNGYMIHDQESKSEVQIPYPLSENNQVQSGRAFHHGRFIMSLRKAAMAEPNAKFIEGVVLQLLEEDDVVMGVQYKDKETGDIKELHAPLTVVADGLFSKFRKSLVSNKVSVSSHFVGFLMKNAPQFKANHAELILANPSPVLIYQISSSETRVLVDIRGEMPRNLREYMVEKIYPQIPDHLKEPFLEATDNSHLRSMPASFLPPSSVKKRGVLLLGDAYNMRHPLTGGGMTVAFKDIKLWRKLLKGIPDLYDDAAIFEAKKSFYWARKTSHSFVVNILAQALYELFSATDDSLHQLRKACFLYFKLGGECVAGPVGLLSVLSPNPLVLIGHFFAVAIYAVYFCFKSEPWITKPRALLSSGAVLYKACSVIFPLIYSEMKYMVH
UniProt Q9H2V7: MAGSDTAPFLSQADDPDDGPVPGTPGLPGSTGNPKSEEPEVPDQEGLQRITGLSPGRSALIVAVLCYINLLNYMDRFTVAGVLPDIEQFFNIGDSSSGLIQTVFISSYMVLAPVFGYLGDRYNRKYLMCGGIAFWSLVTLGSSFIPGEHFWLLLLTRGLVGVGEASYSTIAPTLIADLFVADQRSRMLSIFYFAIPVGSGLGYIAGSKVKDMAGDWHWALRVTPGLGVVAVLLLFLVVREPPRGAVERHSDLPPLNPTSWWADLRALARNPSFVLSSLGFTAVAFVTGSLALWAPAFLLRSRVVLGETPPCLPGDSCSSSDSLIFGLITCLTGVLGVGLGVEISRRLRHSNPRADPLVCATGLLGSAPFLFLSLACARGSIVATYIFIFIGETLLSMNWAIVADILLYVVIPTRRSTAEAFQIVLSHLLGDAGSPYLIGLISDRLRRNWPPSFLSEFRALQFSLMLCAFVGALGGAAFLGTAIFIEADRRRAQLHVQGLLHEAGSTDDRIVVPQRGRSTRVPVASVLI

Assays:
Test in all cases: log2 fold change, soluble protein after heating vs DMSO (PISA); higher = thermal stabilisation; K562 lysate, 10 uM; active = over 0.2 and 3.5 SD of the protein, either way, in both replicates (recomputed)
[1] = compound: C1=CC=C(C=C1)[C@H](COC2=CC3=C(C=C2)NC(=O)N3)NC(=O)C4=CC=CN(C4=O)CC5=CC(=C(C=C5)F)F
In short: (§1)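 Following dounce homogenisation of K562 pellets in PBS pH 7.4 with 1 mM MgCl2, crude extract at 1 mg/mL protein was incubated for 30 min with 10 μM compound. Aliquots were then heated for 3 min over 48°C-58°C and pooled, NP-40 was added to 0.5% at 4°C, and soluble protein was recovered as the supernatant at 21,000xg for 90 min. Channel-sum-equalised TMTpro 16plex LC-MS/MS quantified this protein. Each value, from duplicates, is a log-two fold change in thermal stability relative to solvent controls.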

[2] = compound: CC1=C(SC2=C1C(=N[C@H](C3=NN=C(N32)C)CC(=O)N)C4=CC=C(C=C4)Cl)C
In short: as §1

[3] = compound: CC1=C2C(=CC=C1)N=C(N(C2=O)C3=CC=CC=C3C)CN4C=NC5=C(N=CN=C54)N
In short: as §1

[4] = compound: Cc1sc2c(c1C)C(c1ccc(Cl)cc1)=N[C@@H](CC(=O)OC(C)(C)C)c1nnc(C)n1-2
In short: as §1

[5] = compound: c1ccc([C@@H]2C[C@H]2NC2CCNCC2)cc1
In short: as §1

Measured: log2 fold change

SPECC1 (UniProt Q5M775)
inactive: [1] 0.006 | [2] -0.041 | [3] 0.142 | [4] 0.01 | [5] 0.004

SPCS3 (UniProt P61009)
inactive: [1] -0.004 | [2] -0.028 | [3] 0.063 | [4] -0.006 | [5] 0.022

SSB (UniProt P05455)
inactive: [1] -0.004 | [2] 0.015 | [3] -0.009 | [4] 0.012 | [5] 0.068

SPG21 (UniProt Q9NZD8)
inactive: [1] -0.025 | [2] -0.044 | [3] 0.035 | [4] -0.008 | [5] 0.012

SPTLC1 (UniProt O15269)
inactive: [1] -0.019 | [2] 0.017 | [3] 0.051 | [4] -0.029 | [5] -0.029

SRSF9 (UniProt Q13242)
inactive: [1] 0.015 | [2] 0.024 | [3] -0.076 | [4] 0.06 | [5] -0.014

ST6GALNAC1 (UniProt Q9NSC7)
inactive: [1] 0.085 | [2] -0.055 | [3] 0.066 | [4] 0.057 | [5] 0.044

SQLE (UniProt Q14534)
inactive: [1] 0.044 | [2] 0.054 | [3] -0.099 | [4] 0.012 | [5] 0.031

SPNS1 (UniProt Q9H2V7)
inactive: [1] 0.05 | [2] 0.017 | [3] 0.023 | [4] -0.076 | [5] -0.019
